Data as given in article PMC12514575.
No constants are given. Whether binding was seen depends on the method and setting. Binding seen in cells or lysates may run through a third protein. Binding calls can cover weak binding; strength is not graded here.

Target: FLAG-tagged truncated DCAF13 mutant DCAF13^SOF1Δ
Assay: co-IP; lysate of 293T cells overexpressing FLAG-DCAF13 or FLAG-DCAF13^SOF1Δ; anti-FLAG or IgG on Protein A/G magnetic beads, overnight at 4 °C, six washes with PBS + 0.5% Tween-20; western blot

B1: TAF1A, a subunit of selective factor 1 (SL1) (protein, UniProt Q15573 1-450)
chain: MSDFSEELKGPVTDDEEVETSVLSGAGMHFPWLQTYVETVAIGGKRRKDFAQTTSACLSFIQEALLKHQWQQAAEYMYSYFQTLEDSDSYKRQAAPEIIWKLGSEILFYHPKSNMESFNTFANRMKNIGVMNYLKISLQHALYLLHHGMLKDAKRNLSEAETWRHGENTSSREILINLIQAYKGLLQYYTWSEKKMELSKLDKDDYAYNAVAQDVFNHSWKTSANISALIKIPGVWDPFVKSYVEMLEFYGDRDGAQEVLTNYAYDEKFPSNPNAHIYLYNFLKRQKAPRSKLISVLKILYQIVPSHKLMLEFHTLLRKSEKEEHRKLGLEVLFGVLDFAGCTKNITAWKYLAKYLKNILMGNHLAWVQEEWNSRKNWWPGFHFSYFWAKSDWKEDTALACEKAFVAGLLLGKGCRYFRYILKQDHQILGKKIKRMKRSVKKYSIVNPRL
For B1, the binding was “binds”.
